Eight molecules from patent US20240076375A1 can be followed below.

Where a chain is given by its changes, count along the chain named. Names may count otherwise. No constants are given. Whether binding was seen depends on the method and setting. Some results given as binding are weak or reduced against the parent protein; the word gives no strength. For some assays here: Sequences can lack the tags named with a protein.

The target of assay [1] is T1, Tim-3-his (human) (UniProt Q8TDQ0).
T1 sequence: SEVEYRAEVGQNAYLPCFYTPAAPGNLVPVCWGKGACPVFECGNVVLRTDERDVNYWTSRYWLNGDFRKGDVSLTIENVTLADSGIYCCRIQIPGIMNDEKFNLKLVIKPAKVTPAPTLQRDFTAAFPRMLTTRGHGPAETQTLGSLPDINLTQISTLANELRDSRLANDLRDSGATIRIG
Description: SPR (BIAcore T-200), antibody captured by anti-human Fab, Tim-3-his flowed. Background: Surface plasmon resonance follows binding to a sensor surface in real time, without labels.

The target in assay [2] is T2, Tim-3 (form used in the assay not stated) (human) (UniProt Q8TDQ0).
T2 sequence: T1 sequence
Description: binding assays, not specified.

Assay [3] deals with T2, Tim-3 (form used in the assay not stated) (human). Description: SPR, Fab.

B1: Ab2 in human IgG4 format with S228P mutation (antibody, V domains shown)
VH: EVQLLESGGGLVQPGGSLRLSCAAASGFTFSSYDMSWVRQAPGKGLDWVSTISGGGTYTYYQDSVKGRFTISRDNSKNTLYLQMNSLRAEDTAVYYCASMDYWGQGTTVTVSS
VL: DIQMTQSPSSLSASVGDRVTITCRASQSIRRYLNWYHQKPGKAPKLLIYGASTLQSGVPSRFSGSGSGTDFTLTISSLQPEDFAVYYCQQSHSAPLTFGGGTKVEIKR
Take B1: in assay [1], the binding entry is “binds”.

B2: hu425-1-2c (V62I) (antibody, human IgG1, kappa, V domains shown)
VH: EVQLVESGGGLVQPGGSLRLSCAASGFTFSRYAMSWVRQAPGKGLEWVAAISSGGSLYFPDSVKGRFTISRDNAKNSCYLQMNSLRAEDTAVYYCARGREADGGYFDYWGQGTLVTVSS
VL: DIVLTQSPATLSVSPGERATLSCRASESVEYYGTSLMQWYQQKPGQAPRLLIYAASNVESGIPARFSGSGSGTDFTLTISSLQSEDFAVYYCQQSMKVPLTFGGGTKVEIKR
Turning to B2, the binding entry in assay [2] is listed as “binds”.

B3: Hu425-2-3b in human IgG4 format with S228P mutation (antibody, V domains shown)
VH: B2 VH with F59Y, S77T, C78L
VL: EIVLTQSPATLSVSPGERATLSCRASESVEYYGTSLMQWYQQKPGQAPRLLIYAASNVESGIPARFSGSGSGTEFTLTISSLQSEDFAVYYCQQSLKVPLTFGGGTKVEIK
B3: the binding result in assay [1] was “binds”.

B4: hu425-2A-1 (F59Y in Vh) (antibody, human IgG1, kappa, V domains shown)
VH: B2 VH with F59Y
VL: B2 VL with I62V
B4: the binding result in assay [2] is “binds”.

B5: hu425-2-2 Fab (Fab, V domains shown)
VH: B2 VH with F59Y, S77T, C78L
VL: B3 VL with L4M
As for B5, in assay [3], the binding result is reported as “binds”.

B6: hu425-2-3b Fab (Fab, V domains shown)
VH: B2 VH with F59Y, S77T, C78L
VL: B3 VL
For B6, the binding result in assay [3] is “binds”.

B7: hu425-1-2d (D74E) (antibody, human IgG1, kappa, V domains shown)
VH: B2 VH
VL: B2 VL with I62V, D74E
As for B7, the binding entry in assay [2] was “binds”.

B8: hu425-2C-1 (C78L in Vh) (antibody, human IgG1, kappa, V domains shown)
VH: B2 VH with C78L
VL: B2 VL with I62V
With B8, in assay [2], the binding result is listed as “binds”.
